PubChem BioAssay AID743121 | NCATS | 2013

Assay: 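Knock-downs that sensitise breast cancer cells to camptothecin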 (primary screen)
Cell system: MDA-MB-231 cells, a human breast cancer line
Knock-down reagent: single siRNA against human genes, 20 nM siRNA (0.8 pmol per well)
Timing: 120 h (drug added 48 h after transfection, read 72 h later)
Treatment: camptothecin 20 nM (about EC30) for 72 h; vehicle 0.1% DMSO in parallel plates
Detection: 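Cell viability by ATP luminescence (CellTiter-Glo) as % of non-targeting siRNA wells, and the log2 ratio of viability without drug over viability with camptothecin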
Direction: log2 vehicle/camptothecin viability: higher = stronger sensitisation to camptothecin; viability with camptothecin and viability without drug: higher = more viable cells
Rule for the call: 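Each gene scored by redundant siRNA activity (RSA) over its individual siRNA ratios; a gene is called active at p < 0.001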
This is an unselected part of about 26,000 reagents tested. 167 of them (0.63%) count as active. 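Calls are per gene from RSA p-values that are not deposited; an individual active-marked siRNA can sensitise only weakly.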 Reagents against one gene are numbered here.

gene symbol,reagent,log2 vehicle/camptothecin viability,viability with camptothecin (% of control),viability without drug (% of control),call
CRYGD (GeneID 1421),1,-0.372,67.6,52.2,inactive
CRYGD (GeneID 1421),2,-0.161,100,89.6,inactive
CRYGD (GeneID 1421),3,-0.128,110,101,inactive
AP3S1 (GeneID 1176),1,0.208,85.2,98.4,inactive
AP3S1 (GeneID 1176),2,-0.309,86.7,70,inactive
AP3S1 (GeneID 1176),3,0.312,29,36,inactive
TDRD3 (GeneID 81550),1,-0.165,64.2,57.3,inactive
TDRD3 (GeneID 81550),2,0.54,18.4,26.8,inactive
TDRD3 (GeneID 81550),3,-0.246,101,85,inactive
TDRD3 (GeneID 81550),4,-0.0276,58.8,57.7,inactive
IL12RB2 (GeneID 3595),1,-0.27,97.8,81.1,inactive
IL12RB2 (GeneID 3595),2,-0.469,63.5,45.9,inactive
IL12RB2 (GeneID 3595),3,-0.364,90.7,70.5,inactive
IL12RB2 (GeneID 3595),4,-0.181,95.4,84.2,inactive
DLD (GeneID 1738),1,-0.214,117,101,inactive
DLD (GeneID 1738),2,-0.427,69.4,51.6,inactive
DLD (GeneID 1738),3,-0.411,77.2,58,inactive
DLD (GeneID 1738),4,-0.455,98.7,72,inactive
SLC6A6 (GeneID 6533),1,-0.0419,113,110,inactive
SLC6A6 (GeneID 6533),2,0.401,86.7,115,inactive
SLC6A6 (GeneID 6533),3,0.158,115,128,inactive
SLC6A6 (GeneID 6533),4,0.372,82.1,106,inactive
CTSL (GeneID 1514),1,0.14,54.2,59.7,inactive
CTSL (GeneID 1514),2,-0.0356,79.3,77.3,inactive
CTSL (GeneID 1514),3,-0.296,113,92.2,inactive
CTSL (GeneID 1514),4,-0.314,76.1,61.2,inactive
PMPCB (GeneID 9512),1,-0.0621,89.3,85.6,inactive
PMPCB (GeneID 9512),2,-0.0808,63.1,59.7,inactive
PMPCB (GeneID 9512),3,-0.471,42.7,30.8,inactive

Targets listed so far whose target name starts with P or p (3):
gene symbol,reagent,log2 vehicle/camptothecin viability,viability with camptothecin (% of control),viability without drug (% of control),call
PMPCB (GeneID 9512),1,-0.0621,89.3,85.6,inactive
PMPCB (GeneID 9512),2,-0.0808,63.1,59.7,inactive
PMPCB (GeneID 9512),3,-0.471,42.7,30.8,inactive
